# Data published in PMC8079276.
# The chains behind the UniProt entries cited, without tags or fusion partners. Residues count along the entry.
# UniProt O54950: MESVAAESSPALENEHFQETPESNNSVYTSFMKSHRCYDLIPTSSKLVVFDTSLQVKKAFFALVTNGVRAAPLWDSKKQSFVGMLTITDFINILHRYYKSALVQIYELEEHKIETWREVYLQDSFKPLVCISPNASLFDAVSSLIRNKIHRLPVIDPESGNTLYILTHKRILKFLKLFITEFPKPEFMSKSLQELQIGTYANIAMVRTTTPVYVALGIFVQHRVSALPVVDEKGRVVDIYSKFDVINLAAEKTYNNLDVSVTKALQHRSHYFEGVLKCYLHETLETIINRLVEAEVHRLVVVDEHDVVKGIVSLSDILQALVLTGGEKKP
# UniProt A2AQH4: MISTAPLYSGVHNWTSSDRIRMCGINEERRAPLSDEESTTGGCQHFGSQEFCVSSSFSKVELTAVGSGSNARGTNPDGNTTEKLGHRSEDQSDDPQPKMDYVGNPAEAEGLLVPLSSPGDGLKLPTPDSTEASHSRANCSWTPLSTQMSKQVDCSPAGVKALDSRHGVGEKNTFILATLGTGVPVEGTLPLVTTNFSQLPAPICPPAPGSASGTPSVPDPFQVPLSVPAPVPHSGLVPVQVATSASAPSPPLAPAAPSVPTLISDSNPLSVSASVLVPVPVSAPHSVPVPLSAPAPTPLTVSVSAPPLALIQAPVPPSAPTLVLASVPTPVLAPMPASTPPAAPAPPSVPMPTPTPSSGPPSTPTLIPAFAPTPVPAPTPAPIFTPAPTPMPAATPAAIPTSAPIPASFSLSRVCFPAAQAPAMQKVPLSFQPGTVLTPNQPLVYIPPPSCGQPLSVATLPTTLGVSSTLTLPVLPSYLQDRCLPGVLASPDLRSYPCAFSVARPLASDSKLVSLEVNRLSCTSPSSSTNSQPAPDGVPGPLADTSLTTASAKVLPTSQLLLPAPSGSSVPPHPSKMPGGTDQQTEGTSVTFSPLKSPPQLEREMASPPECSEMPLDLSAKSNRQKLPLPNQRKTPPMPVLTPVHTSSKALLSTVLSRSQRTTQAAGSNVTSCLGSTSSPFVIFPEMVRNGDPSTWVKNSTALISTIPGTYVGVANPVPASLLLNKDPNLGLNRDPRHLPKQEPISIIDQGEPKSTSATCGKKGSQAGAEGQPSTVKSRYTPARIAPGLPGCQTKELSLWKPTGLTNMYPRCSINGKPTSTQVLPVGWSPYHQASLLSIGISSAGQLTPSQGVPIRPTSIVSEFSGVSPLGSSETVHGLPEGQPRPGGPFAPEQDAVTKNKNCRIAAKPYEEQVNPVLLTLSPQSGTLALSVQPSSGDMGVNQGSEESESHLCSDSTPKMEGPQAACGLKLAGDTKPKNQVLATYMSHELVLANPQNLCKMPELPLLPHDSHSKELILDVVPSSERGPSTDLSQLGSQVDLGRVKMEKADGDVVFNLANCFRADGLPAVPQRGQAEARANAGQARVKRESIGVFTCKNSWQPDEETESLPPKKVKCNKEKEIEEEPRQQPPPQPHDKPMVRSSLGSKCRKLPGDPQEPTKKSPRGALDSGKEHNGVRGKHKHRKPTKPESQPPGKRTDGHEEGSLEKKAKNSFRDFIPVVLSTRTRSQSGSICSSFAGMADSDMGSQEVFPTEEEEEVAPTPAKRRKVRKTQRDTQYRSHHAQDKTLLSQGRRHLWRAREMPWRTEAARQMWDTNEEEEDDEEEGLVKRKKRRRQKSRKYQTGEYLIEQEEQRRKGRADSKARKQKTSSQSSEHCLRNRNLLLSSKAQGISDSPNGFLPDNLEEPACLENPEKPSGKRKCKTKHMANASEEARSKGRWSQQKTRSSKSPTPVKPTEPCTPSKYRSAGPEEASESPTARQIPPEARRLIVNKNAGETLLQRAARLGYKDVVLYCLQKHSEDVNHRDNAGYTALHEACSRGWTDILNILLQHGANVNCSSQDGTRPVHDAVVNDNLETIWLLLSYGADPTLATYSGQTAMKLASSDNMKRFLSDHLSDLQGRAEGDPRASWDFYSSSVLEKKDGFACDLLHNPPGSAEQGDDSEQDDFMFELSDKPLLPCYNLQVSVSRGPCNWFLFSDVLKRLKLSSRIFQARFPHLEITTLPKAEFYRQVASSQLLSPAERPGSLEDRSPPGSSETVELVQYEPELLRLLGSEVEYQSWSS
# UniProt Q9QZD9: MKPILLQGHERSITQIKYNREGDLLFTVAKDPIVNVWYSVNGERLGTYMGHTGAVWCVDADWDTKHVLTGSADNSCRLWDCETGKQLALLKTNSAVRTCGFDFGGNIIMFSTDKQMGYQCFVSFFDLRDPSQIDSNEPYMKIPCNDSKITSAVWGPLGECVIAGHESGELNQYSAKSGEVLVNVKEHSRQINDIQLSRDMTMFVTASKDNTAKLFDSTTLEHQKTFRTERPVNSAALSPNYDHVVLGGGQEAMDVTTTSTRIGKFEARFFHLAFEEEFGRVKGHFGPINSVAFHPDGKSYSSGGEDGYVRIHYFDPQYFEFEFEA
# UniProt Q9EST5: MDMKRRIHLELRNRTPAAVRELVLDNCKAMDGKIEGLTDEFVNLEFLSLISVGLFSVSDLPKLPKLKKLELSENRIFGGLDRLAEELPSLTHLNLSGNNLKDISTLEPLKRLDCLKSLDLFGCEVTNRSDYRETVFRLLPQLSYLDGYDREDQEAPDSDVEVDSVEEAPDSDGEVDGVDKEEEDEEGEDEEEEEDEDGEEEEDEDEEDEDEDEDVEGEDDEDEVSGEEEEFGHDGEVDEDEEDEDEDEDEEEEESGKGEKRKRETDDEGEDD
# UniProt P83741: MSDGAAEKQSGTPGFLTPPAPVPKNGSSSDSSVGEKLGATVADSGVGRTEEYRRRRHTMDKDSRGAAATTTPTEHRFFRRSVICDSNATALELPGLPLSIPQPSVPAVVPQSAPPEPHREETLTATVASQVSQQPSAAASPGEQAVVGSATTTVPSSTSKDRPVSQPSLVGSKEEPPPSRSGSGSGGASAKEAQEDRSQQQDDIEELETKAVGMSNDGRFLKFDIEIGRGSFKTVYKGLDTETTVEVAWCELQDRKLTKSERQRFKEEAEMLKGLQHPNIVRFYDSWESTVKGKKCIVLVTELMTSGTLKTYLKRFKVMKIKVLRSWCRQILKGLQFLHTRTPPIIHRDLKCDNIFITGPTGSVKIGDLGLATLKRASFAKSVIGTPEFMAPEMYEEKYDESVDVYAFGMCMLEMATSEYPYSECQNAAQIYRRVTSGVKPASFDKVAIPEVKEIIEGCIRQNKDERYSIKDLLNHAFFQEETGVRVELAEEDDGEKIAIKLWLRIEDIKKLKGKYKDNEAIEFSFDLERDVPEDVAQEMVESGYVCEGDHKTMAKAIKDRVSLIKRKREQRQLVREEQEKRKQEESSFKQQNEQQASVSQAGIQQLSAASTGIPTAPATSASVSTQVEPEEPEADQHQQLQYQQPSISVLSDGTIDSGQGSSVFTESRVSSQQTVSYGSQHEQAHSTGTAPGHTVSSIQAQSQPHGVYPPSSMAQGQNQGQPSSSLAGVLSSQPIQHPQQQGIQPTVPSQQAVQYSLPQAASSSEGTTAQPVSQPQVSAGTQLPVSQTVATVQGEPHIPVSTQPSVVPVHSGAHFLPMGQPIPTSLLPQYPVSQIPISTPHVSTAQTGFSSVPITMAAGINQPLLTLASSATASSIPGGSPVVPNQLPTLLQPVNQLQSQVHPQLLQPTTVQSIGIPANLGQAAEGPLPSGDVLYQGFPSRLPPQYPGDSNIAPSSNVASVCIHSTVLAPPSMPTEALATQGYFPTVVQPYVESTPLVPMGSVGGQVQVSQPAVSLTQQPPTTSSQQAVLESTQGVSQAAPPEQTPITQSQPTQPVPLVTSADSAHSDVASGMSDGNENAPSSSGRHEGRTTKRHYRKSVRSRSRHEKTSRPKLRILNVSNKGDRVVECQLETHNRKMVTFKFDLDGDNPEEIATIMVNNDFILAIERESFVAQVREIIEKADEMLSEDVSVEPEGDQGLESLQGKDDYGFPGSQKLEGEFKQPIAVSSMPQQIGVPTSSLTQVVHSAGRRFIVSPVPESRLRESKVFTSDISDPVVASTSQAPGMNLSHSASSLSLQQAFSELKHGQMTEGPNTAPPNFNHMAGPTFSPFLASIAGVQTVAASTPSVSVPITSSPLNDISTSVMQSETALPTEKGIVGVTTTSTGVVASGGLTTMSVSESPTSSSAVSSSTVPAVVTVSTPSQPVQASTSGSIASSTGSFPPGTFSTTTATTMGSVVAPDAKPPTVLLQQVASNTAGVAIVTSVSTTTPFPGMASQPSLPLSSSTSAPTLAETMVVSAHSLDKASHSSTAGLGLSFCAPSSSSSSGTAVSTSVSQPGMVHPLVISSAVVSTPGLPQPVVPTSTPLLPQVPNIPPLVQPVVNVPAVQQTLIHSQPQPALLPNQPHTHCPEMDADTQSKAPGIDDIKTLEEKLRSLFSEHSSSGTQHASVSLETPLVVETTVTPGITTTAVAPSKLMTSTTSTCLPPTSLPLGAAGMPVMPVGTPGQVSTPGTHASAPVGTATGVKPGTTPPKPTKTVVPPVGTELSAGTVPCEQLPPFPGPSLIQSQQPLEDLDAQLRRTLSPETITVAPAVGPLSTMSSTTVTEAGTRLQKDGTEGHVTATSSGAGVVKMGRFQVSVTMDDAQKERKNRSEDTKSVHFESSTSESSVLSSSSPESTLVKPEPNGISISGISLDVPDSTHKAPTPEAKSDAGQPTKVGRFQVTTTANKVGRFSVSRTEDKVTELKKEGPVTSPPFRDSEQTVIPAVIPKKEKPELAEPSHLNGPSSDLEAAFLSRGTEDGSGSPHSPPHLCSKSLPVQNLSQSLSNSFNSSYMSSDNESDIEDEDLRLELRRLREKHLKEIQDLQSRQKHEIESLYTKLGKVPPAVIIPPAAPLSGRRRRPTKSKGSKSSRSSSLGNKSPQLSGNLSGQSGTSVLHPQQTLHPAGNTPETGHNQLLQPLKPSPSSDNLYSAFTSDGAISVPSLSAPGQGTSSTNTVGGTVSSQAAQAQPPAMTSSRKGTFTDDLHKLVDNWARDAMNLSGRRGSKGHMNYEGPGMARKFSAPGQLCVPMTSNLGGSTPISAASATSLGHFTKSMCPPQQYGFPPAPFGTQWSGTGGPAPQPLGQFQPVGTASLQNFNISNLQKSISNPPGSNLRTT
# UniProt Q9CWW7: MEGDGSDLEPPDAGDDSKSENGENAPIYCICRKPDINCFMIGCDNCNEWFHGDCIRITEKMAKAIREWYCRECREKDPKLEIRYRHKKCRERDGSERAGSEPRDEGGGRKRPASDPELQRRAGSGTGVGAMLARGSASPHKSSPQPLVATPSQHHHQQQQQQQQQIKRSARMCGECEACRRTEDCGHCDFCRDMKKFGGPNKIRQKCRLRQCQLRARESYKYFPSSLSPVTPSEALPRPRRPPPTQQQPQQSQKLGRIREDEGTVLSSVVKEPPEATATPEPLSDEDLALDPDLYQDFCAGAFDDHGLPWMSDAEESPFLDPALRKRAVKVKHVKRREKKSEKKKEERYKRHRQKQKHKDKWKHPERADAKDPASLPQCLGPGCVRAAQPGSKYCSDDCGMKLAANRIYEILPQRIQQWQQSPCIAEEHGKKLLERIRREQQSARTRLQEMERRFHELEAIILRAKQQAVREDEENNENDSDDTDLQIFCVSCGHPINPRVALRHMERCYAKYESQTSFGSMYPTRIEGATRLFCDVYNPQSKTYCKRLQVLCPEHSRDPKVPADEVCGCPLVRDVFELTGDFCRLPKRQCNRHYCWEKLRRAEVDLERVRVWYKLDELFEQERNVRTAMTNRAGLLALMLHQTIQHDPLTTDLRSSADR
# UniProt Q91VD9, residues 24-727: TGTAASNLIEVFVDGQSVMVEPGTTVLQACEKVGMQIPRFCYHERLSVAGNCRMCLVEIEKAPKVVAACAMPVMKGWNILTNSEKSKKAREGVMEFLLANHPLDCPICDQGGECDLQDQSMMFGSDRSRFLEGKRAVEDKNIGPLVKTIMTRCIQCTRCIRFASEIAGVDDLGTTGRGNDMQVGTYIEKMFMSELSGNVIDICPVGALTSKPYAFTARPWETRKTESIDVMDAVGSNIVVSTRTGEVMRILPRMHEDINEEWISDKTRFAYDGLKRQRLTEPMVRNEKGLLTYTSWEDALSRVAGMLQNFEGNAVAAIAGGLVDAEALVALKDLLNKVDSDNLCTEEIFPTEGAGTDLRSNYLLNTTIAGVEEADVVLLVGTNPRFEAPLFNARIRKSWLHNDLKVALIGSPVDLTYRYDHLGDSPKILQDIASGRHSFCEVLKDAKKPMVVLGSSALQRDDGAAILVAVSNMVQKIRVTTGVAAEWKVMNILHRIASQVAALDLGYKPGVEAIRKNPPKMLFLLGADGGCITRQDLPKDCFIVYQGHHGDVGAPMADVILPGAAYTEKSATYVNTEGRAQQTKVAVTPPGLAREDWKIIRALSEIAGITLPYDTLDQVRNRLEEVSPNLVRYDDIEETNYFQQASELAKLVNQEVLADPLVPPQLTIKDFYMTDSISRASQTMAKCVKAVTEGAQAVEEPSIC
# These are yes or no findings as the source states them, for the method shown. In cells and extracts the contact can be indirect. A yes stands for co-enrichment or nearness to the bait. Other partners may have been found. Where a sequence is shown, tags or fusion partners need not be part of it.
# Target: T1, UDP-N-acetylglucosamine-peptide N-acetylglucosaminyltransferase (mouse (endogenous in MEFs)) (UniProt Q8CGY8)
# T1 sequence: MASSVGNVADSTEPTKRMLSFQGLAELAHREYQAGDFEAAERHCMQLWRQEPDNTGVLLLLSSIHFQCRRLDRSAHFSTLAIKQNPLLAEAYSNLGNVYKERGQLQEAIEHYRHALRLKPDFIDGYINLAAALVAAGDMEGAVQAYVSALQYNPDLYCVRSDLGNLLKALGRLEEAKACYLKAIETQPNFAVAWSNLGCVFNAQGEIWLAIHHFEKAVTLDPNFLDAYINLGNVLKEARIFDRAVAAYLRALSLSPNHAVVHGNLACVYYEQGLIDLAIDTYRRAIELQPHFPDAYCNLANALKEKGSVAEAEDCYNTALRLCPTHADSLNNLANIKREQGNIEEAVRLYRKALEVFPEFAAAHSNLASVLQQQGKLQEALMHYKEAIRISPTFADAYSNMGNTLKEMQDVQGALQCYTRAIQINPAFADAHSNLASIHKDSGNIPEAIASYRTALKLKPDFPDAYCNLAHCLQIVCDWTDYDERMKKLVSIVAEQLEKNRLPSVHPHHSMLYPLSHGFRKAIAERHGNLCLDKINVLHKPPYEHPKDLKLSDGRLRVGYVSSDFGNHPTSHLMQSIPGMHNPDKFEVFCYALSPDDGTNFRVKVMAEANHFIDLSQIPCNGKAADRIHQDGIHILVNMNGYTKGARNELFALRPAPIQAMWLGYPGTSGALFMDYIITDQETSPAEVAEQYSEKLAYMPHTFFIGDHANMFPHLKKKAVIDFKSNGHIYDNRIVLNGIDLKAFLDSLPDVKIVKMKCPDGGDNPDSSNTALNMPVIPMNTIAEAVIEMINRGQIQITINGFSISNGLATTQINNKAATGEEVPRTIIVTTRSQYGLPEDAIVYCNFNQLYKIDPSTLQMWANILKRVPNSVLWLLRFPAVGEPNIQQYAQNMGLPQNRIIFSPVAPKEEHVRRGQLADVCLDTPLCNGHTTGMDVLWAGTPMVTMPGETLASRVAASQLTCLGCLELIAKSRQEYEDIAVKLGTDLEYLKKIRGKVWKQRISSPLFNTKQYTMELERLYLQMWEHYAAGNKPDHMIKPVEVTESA
# Assay: affinity purification with mass spectrometry; endogenous OGT immunoprecipitated (antibody AL24, protein G magnetic beads, TCL buffer: 50 mM Tris HCl, 150 mM NaCl, pH 7.5, 1% NP-40, 2 mM EDTA) from a 1:1:1 mix of SILAC-labelled lysates of WT, H2O2-treated (2.5 mM, 1.5 h) and OGT-null MEFs, precleared with rabbit IgG; in-gel trypsin digestion, LC-MS/MS; interactor if log2 WT or H2O2/null >=1 in 2 or more replicates
row,Substance,binding
1,Usp10 (from UniProt P52479 1-792),binds
2,ankyrin repeat domain–containing protein 17 (from UniProt Q99NH0 1-2603),binds
3,Ctgf (from UniProt P29268 26-348),binds
4,Ptpn23 (from UniProt Q6PB44 1-1692),binds
5,Fat1 (mouse (endogenous in MEFs)),binds
6,Transcription factor HIVEP3 isoform X1 (from UniProt A2A884 1-2348),binds
7,Zc3h13 (from UniProt E9Q784 1-1729),binds
8,Putative polycomb group protein ASXL1 (from UniProt P59598 1-1514),binds
9,Mpst (from UniProt Q99J99 1-297),binds
10,Plec (from UniProt Q9QXS1 1-4691),binds
11,Mllt4 (from UniProt Q9QZQ1 1-1820),binds
12,Pard3 (from UniProt Q99NH2 1-1333),binds
13,Hivep2 (from UniProt Q3UHF7 1-2430),binds
14,Nsun2 (from UniProt Q1HFZ0 1-757),binds
15,nucleoporin NUP188 homolog (from UniProt Q6ZQH8 1-1759),binds
16,182-kDa tankyrase-1–binding protein (from UniProt P58871 1-1720),binds
17,Cope (from UniProt O89079 1-308),binds
18,3-ketoacyl-CoA thiolase (mouse (endogenous in MEFs)),binds
19,ran-binding protein 9 (from UniProt P69566 1-653),binds
20,5'-AMP–activated protein kinase subunit gamma-1 (from UniProt O54950 1-330),binds
21,Abnormal spindle-like microcephaly-associated protein homolog (from UniProt Q8CJ27-1 1-3122),binds
22,eukaryotic translation initiation factor 3 subunit B (from UniProt Q8JZQ9 1-803),binds

# Second part, the substance after the results:
row,binding,Substance
1,binds,BCL-6 corepressor-like protein 1 isoform X1 (from UniProt A2AQH4 1-1781)
2,binds,Eif3i (from UniProt Q9QZD9 1-325)
3,binds,Anp32b (from UniProt Q9EST5 1-272)
4,binds,Rrm2 (from UniProt P11157 1-390)
5,binds,KAT8 regulatory NSL complex subunit 3 isoform X4 (from UniProt A2RSY1 1-903)
6,binds,Eif3h (from UniProt Q91WK2 1-352)
7,binds,Chd3 (mouse (endogenous in MEFs))
8,binds,Serine/threonine-protein kinase WNK1 isoform X1 (from UniProt P83741 1-2377)
9,binds,tet methylcytosine dioxygenase 3 (from UniProt Q8BG87 1-1803)
10,binds,Chd2 (from UniProt E9PZM4 1-1827)
11,binds,Usp5 (from UniProt P56399 1-858)
12,binds,Aars (from UniProt Q8BGQ7 1-968)
13,binds,CCR4-NOT transcription complex subunit 1 isoform X1 (from UniProt Q6ZQ08 1-2375)
14,binds,Cxxc1 (from UniProt Q9CWW7 1-660)
15,binds,Large proline-rich protein BAG6 isoform X8 (from UniProt Q9Z1R2 1-1154)
16,binds,Ndufs1 (from UniProt Q91VD9 24-727)
17,binds,heat shock factor protein 1 (from UniProt P38532 1-525)
18,binds,kinesin heavy chain (mouse (endogenous in MEFs))

# Target: T1, UDP-N-acetylglucosamine-peptide N-acetylglucosaminyltransferase (mouse (endogenous in MEFs))
# Assay: affinity purification with mass spectrometry; endogenous OGT immunoprecipitated (antibody AL24) independently from WT, H2O2-treated (2.5 mM, 1.5 h) and OGT-null MEF lysates; tryptic digestion; label-free parallel reaction monitoring (PRM) of chosen peptides, normalised to OGT peptides
row,binding,Substance
1,binds,eukaryotic translation initiation factor 3 subunit B (from UniProt Q8JZQ9 1-803)
